Test results: the supplement of paper PMC10849652
The list shows a part of the results.

Sequences of proteins named here, by UniProt entry; tags and fusion partners are left off. A change or cut given only in a name is not applied to a line headed by its entry.
UniProt O00560: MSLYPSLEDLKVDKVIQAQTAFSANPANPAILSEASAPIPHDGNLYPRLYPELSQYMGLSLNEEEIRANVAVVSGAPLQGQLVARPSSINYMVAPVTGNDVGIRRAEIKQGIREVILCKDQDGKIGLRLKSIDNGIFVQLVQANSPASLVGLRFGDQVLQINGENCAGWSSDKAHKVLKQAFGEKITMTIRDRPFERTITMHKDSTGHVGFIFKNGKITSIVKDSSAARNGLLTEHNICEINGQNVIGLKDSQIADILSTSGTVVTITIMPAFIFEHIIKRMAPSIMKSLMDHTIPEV
UniProt Q6SPF0: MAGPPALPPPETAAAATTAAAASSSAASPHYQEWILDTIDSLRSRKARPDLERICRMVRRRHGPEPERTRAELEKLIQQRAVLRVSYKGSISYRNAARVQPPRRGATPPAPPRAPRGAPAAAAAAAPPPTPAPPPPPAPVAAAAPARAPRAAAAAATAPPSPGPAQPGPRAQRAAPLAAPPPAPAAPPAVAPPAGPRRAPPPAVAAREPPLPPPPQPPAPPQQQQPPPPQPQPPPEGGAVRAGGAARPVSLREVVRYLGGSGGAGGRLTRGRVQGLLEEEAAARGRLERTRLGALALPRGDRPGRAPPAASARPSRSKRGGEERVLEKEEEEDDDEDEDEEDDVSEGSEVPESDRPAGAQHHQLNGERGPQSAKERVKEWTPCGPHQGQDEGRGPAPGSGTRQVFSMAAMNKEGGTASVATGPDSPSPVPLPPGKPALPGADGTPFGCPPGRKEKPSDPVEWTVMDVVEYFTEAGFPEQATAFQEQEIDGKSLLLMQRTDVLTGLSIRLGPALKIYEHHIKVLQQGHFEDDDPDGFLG
UniProt Q9NXZ1: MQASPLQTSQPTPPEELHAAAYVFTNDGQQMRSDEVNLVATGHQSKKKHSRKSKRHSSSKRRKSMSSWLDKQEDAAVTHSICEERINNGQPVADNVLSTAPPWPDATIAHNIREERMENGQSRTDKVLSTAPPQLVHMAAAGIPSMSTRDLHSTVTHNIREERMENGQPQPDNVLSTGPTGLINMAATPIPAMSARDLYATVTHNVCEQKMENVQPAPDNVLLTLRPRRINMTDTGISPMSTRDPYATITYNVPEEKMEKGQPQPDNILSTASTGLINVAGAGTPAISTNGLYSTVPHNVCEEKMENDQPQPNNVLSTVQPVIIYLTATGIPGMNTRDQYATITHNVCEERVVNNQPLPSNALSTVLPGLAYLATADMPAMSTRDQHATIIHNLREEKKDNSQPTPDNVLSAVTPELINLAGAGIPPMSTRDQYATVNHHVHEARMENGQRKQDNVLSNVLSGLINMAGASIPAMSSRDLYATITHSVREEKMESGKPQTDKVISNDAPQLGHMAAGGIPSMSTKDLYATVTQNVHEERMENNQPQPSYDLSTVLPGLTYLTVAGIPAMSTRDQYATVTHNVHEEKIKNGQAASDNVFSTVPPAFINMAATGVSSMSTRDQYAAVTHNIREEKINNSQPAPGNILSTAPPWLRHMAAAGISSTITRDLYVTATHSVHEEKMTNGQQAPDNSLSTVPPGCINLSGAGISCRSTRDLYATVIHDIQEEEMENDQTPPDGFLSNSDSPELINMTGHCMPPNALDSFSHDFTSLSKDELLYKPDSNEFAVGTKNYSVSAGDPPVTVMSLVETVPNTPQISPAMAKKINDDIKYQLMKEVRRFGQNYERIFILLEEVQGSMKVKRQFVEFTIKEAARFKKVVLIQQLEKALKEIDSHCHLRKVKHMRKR
UniProt Q96T21: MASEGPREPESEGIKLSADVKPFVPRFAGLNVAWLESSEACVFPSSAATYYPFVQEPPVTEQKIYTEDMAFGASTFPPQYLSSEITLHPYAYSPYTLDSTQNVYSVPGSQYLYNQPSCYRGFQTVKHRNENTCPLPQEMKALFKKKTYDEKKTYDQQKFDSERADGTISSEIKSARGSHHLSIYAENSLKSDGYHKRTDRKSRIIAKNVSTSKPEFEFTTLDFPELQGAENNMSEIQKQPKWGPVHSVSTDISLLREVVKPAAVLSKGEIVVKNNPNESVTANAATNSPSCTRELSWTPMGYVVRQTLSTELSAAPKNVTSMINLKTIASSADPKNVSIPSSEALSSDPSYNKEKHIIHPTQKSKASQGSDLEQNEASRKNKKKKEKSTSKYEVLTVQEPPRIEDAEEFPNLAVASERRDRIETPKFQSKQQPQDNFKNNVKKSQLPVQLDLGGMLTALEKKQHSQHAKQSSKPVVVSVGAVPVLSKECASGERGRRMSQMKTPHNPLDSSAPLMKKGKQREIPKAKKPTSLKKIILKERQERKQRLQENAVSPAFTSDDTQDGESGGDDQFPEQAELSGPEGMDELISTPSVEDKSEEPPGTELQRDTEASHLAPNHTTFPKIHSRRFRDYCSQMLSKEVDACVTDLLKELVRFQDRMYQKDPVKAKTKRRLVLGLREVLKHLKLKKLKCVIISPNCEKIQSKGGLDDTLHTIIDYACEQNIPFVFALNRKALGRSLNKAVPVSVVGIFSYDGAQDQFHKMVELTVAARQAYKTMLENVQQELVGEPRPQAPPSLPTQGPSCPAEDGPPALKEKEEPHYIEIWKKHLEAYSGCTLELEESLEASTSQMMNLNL
UniProt Q9NRG7: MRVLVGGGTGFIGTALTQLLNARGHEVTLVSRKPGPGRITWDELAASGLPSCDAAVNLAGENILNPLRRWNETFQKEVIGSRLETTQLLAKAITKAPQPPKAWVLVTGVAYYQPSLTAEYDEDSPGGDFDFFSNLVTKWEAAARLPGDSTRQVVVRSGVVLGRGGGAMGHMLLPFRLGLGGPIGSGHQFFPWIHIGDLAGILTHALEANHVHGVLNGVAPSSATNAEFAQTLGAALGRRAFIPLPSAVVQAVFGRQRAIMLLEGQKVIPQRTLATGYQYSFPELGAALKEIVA
UniProt Q9BWG6: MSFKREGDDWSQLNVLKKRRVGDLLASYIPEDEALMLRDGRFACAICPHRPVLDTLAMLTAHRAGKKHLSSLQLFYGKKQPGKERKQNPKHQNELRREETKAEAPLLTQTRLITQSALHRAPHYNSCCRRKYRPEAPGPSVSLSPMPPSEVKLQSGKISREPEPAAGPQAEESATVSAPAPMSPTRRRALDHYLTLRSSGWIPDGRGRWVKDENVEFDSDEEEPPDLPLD
UniProt Q6SZW1: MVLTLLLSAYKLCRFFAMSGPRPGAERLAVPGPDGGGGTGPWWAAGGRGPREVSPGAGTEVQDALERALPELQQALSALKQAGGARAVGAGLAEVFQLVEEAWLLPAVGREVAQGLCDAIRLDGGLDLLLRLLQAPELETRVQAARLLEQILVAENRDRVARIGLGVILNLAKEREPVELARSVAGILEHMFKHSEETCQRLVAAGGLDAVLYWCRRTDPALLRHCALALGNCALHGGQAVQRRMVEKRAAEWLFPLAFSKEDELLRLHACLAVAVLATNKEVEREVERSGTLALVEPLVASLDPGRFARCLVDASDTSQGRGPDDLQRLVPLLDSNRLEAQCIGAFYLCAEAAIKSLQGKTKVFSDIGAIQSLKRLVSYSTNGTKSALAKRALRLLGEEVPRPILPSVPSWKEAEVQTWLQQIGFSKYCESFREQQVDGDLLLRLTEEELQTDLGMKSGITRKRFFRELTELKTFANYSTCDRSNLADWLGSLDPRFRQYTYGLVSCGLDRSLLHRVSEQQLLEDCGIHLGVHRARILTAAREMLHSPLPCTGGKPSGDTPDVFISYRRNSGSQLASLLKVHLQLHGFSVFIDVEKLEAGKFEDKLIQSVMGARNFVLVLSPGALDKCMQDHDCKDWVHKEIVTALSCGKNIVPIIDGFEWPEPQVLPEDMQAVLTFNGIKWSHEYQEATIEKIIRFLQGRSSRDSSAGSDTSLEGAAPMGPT
UniProt O95968: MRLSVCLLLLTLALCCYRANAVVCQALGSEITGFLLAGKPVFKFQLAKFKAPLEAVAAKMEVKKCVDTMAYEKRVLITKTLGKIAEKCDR
UniProt P60896: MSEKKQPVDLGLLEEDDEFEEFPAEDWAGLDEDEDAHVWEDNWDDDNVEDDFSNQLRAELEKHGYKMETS
UniProt Q9HAJ7: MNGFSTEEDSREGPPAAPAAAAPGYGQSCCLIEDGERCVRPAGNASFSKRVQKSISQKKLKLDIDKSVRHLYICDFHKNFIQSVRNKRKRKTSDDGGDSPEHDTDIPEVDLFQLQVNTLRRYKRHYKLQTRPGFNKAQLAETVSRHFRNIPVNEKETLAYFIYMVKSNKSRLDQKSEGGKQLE
UniProt O95969: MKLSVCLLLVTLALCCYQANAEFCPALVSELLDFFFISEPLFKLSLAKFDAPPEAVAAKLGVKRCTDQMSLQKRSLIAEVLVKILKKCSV
UniProt Q8N9R8: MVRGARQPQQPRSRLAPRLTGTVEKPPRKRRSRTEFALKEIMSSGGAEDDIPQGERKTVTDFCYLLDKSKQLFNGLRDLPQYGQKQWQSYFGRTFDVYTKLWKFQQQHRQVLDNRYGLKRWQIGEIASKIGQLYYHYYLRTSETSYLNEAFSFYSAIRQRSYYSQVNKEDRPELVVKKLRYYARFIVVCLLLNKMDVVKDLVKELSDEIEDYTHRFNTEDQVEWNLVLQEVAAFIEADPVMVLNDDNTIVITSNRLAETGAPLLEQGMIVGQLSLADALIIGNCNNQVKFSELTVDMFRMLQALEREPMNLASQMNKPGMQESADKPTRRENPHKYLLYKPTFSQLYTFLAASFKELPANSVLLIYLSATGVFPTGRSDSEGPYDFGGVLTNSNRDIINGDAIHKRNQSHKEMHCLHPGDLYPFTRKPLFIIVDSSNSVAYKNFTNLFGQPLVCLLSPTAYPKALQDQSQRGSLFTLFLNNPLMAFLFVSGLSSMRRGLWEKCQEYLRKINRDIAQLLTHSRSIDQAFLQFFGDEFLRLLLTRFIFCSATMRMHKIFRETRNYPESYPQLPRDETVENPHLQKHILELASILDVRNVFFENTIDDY
UniProt A6NKF1: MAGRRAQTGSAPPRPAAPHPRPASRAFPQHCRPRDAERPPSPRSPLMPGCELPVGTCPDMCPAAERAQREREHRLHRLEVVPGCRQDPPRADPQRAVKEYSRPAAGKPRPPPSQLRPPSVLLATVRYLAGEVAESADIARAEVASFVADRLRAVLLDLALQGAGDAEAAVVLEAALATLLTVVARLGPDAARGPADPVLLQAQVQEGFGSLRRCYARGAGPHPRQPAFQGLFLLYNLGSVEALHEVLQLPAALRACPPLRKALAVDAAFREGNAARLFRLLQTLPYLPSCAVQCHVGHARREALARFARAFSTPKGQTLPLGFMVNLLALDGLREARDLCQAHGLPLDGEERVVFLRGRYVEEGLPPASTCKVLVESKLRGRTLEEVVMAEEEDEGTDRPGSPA
UniProt P63302, whole entry, looked up: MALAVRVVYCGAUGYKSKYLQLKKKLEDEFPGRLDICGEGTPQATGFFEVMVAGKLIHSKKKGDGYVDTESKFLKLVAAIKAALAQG
UniProt Q8WWX9, whole entry, looked up: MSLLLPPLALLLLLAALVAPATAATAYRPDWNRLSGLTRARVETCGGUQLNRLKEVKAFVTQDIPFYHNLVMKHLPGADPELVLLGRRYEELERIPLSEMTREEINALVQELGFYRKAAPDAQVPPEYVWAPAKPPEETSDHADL
UniProt P57086: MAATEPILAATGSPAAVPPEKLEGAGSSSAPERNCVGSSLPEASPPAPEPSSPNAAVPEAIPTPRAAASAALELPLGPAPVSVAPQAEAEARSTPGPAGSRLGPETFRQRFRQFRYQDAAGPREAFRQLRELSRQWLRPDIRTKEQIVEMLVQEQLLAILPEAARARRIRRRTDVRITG
UniProt Q9UIL1: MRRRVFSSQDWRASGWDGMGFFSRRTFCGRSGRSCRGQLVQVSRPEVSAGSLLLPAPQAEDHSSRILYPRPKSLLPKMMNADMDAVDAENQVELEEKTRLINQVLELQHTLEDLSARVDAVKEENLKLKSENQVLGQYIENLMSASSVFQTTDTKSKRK
UniProt Q9C0D9, whole entry, looked up: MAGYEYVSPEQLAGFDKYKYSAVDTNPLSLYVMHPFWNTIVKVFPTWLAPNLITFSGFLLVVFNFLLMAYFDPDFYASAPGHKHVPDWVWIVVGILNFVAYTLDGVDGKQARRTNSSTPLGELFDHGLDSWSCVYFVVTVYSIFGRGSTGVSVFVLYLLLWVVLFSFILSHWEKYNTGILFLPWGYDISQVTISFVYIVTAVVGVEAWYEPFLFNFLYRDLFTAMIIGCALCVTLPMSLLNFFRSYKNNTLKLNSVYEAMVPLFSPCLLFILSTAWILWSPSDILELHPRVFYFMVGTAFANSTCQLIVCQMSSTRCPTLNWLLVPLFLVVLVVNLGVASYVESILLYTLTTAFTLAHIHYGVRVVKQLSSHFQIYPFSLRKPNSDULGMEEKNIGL
UniProt O75845: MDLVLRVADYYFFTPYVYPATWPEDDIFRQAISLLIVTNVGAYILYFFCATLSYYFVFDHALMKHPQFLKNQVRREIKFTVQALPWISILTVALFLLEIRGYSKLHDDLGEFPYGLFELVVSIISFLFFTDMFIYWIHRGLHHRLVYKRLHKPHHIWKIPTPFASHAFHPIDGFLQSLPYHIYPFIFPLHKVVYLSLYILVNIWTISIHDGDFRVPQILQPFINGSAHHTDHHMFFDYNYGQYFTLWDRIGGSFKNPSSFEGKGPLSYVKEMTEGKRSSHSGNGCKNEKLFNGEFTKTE

Legend:
Experiment in all cases: log2 fold change, soluble protein after heating vs DMSO (PISA); higher = thermal stabilisation; K562 lysate, 10 uM; active = over 0.2 and 3.5 SD of the protein, either way, in both replicates (recomputed)
[1] = compound: NCC(=O)Nc1ccc(-n2nc(C(F)(F)F)cc2-c2ccc3c(ccc4ccccc43)c2)cc1
Summary of the method: (§1)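 A 30 min treatment with 10 μM compound was applied to crude K562 extract at 1 mg/mL protein in PBS pH 7.4 with 1 mM MgCl2. Heating for 3 min spanned 48°C-58°C, after which aliquots were pooled, adjusted to 0.5% NP-40 at 4°C and spun at 21,000xg for 90 min. TMTpro 16plex LC-MS/MS of the supernatant, with channel sums equalised, gave values recorded as log-two fold change in thermal stability against solvent controls, from duplicates.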

vorinostat = compound: O=C(CCCCCCC(=O)Nc1ccccc1)NO [vorinostat]
Summary of the method: as §1

silmitasertib = compound: O=C(O)c1ccc2c(c1)nc(Nc1cccc(Cl)c1)c1ccncc12 [silmitasertib]
Summary of the method: as §1

[2] = compound: O=C1NC(=O)C(c2cnc3ccccn23)=C1c1cn2c3c(cc(F)cc13)CN(C(=O)N1CCCCC1)CC2
Summary of the method: as §1

entospletinib = compound: c1cn2cc(-c3ccc4cn[nH]c4c3)nc(Nc3ccc(N4CCOCC4)cc3)c2n1 [entospletinib]
Summary of the method: as §1

Target | log2 fold change [1] | log2 fold change (vorinostat) | log2 fold change (silmitasertib) | log2 fold change [2] | log2 fold change (entospletinib)
SDHA (UniProt P31040) | inactive: 0.007 | inactive: 0.058 | inactive: -0.014 | inactive: -0.028 | inactive: -0.006
SENP7 (UniProt Q9BQF6) | – | – | – | inactive: -0.091 | inactive: -0.012
SEPTIN8 (UniProt F8W8I8) | – | inactive: 0.157 | inactive: 0.1 | – | –
SAP30 (UniProt O75446) | inactive: 0.001 | – | – | inactive: -0.024 | inactive: -0.022
SAFB2 (UniProt K7EQU4) | – | – | – | inactive: -0.063 | –
SDCBP isoform 2 (UniProt O00560) | – | inactive: 0.078 | inactive: 0.003 | inactive: 0.222 | –
SAMD1 (UniProt Q6SPF0) | – | – | – | inactive: 0.034 | inactive: 0.034
SAGE1 (UniProt Q9NXZ1) | – | inactive: 0.023 | inactive: -0.023 | inactive: -0.018 | inactive: -0.088
SEC22A (UniProt Q96IW7) | – | – | – | inactive: 0.029 | –
SECISBP2 (UniProt Q96T21) | inactive: -0.089 | – | – | inactive: -0.038 | inactive: -0.029
SAE1 (UniProt M0R286) | inactive: 0.148 | inactive: 0.005 | inactive: 0.013 | – | inactive: -0.019
SCO2 (UniProt O43819) | inactive: -0.024 | inactive: 0.063 | inactive: -0.079 | inactive: 0.017 | inactive: 0.053
SDR39U1 (UniProt Q9NRG7) | – | inactive: -0.072 | inactive: -0.063 | – | –
SDF2 (UniProt Q99470) | – | – | – | inactive: 0.125 | –
SCNM1 (UniProt Q9BWG6) | – | inactive: -0.13 | inactive: -0.102 | inactive: -0.082 | inactive: 0.092
SAMD9 (UniProt Q5K651) | – | – | – | inactive: 0.018 | inactive: 0.003
SARM1 (UniProt Q6SZW1) | – | inactive: 0.017 | inactive: -0.102 | – | –
SCGB1D1 (UniProt O95968) | – | inactive: 0.435 | inactive: -0.066 | – | –
SART1 (UniProt O43290) | inactive: -0.006 | inactive: 0.012 | inactive: 0.002 | inactive: 0.002 | inactive: -0.006

Target | log2 fold change [1] | log2 fold change (vorinostat) | log2 fold change (silmitasertib) | log2 fold change [2] | log2 fold change (entospletinib)
SEM1 (UniProt P60896) | – | inactive: 0.126 | inactive: -0.053 | – | –
SELENON (UniProt Q9NZV5) | – | inactive: 0.078 | inactive: -0.021 | – | –
SAP30L (UniProt Q9HAJ7) | – | inactive: -0.334 | inactive: 0.21 | inactive: -0.002 | –
SEC31A (UniProt H0YAB3) | – | inactive: 0.059 | inactive: 0.042 | – | –
SBSN (UniProt Q6UWP8) | – | inactive: 0.09 | inactive: -0.133 | – | –
SCGB1D2 (UniProt O95969) | – | inactive: 0.497 | inactive: -0.35 | inactive: 0.097 | inactive: -0.26
SCAI isoform 2 (UniProt Q8N9R8) | inactive: 0.236 | – | – | – | inactive: 0.107
SDC3 (UniProt O75056) | – | inactive: 0.114 | inactive: 0.029 | inactive: -0.059 | –
SAC3D1 (UniProt A6NKF1) | – | – | – | inactive: -0.126 | –
SAMD8 (UniProt Q96LT4) | – | inactive: 0.183 | inactive: 0.015 | – | –
SELENOW (UniProt P63302) | – | – | – | inactive: -0.045 | –
SELENOM (UniProt Q8WWX9) | – | – | – | inactive: 0.004 | –
SCAND1 (UniProt P57086) | – | – | – | inactive: -0.195 | –
SALL1 (UniProt Q9NSC2) | – | – | – | – | inactive: 0.043
SCOC (UniProt Q9UIL1) | – | inactive: 0.356 | inactive: 0.095 | inactive: -0.105 | –
SALL2 (UniProt Q9Y467) | – | inactive: -0.412 | inactive: -0.197 | inactive: 0.003 | inactive: 0.028
SELENOT (UniProt P62341) | – | inactive: 0.018 | inactive: -0.082 | inactive: -0.08 | inactive: 0.115
SELENOI (UniProt Q9C0D9) | – | inactive: 0.112 | inactive: -0.05 | inactive: 0.005 | inactive: 0.003
SC5D (UniProt O75845) | – | – | – | inactive: -0.01 | inactive: -0.04

8 entries from above in another layout.
Target,log2 fold change [1],log2 fold change (vorinostat),log2 fold change (silmitasertib),log2 fold change [2],log2 fold change (entospletinib)
SEC31A (UniProt H0YAB3),–,inactive: 0.059,inactive: 0.042,–,–
SBSN (UniProt Q6UWP8),–,inactive: 0.09,inactive: -0.133,–,–
SCAI isoform 2 (UniProt Q8N9R8),inactive: 0.236,–,–,–,inactive: 0.107
SDC3 (UniProt O75056),–,inactive: 0.114,inactive: 0.029,inactive: -0.059,–
SELENOW (UniProt P63302),–,–,–,inactive: -0.045,–
SELENOM (UniProt Q8WWX9),–,–,–,inactive: 0.004,–
SCAND1 (UniProt P57086),–,–,–,inactive: -0.195,–
SELENOT (UniProt P62341),–,inactive: 0.018,inactive: -0.082,inactive: -0.08,inactive: 0.115
